# ± gives the standard deviation of the averaged measurements. The entries are a selection whose mix differs from that of the whole data set.
# Chains of the proteins cited; added tags and fusions are not shown. Lines headed by an entry give the natural chain unless they say otherwise; changes in a name come on top.
# UniProt Q9BYJ9: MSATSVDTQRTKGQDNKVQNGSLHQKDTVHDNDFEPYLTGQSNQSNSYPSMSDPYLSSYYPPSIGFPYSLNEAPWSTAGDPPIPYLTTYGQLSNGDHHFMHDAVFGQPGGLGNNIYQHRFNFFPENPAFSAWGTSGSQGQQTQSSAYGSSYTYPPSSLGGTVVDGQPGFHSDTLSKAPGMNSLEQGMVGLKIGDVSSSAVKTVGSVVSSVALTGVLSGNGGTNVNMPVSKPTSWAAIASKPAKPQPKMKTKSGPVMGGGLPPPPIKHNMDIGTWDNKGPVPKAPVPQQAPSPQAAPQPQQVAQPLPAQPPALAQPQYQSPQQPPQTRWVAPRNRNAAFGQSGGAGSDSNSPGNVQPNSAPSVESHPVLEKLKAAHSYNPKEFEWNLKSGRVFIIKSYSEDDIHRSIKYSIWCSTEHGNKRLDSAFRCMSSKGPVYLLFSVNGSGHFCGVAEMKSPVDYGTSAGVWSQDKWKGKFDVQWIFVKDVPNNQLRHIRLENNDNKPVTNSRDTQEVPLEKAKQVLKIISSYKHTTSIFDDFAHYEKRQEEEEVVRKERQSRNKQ
# UniProt Q9BW85: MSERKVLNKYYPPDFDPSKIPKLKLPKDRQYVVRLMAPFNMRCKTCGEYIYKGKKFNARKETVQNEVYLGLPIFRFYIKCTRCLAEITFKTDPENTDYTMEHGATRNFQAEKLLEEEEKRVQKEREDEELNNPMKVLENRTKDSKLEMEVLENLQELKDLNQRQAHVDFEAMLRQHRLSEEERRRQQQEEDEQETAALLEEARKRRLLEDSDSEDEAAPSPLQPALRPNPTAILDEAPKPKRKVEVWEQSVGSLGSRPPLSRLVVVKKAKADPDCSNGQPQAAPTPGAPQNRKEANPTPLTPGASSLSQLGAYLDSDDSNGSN
# UniProt Q9BTY7: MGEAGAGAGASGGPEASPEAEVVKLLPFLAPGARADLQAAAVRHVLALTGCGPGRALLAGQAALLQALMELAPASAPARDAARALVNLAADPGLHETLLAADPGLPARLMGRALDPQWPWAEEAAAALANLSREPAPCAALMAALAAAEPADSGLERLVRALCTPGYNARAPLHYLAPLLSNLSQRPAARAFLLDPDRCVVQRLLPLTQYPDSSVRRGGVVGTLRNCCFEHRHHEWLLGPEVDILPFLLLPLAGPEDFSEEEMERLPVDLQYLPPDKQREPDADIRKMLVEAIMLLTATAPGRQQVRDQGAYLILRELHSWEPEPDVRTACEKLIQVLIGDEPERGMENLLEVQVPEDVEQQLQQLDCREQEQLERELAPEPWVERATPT
# UniProt Q9BTU6: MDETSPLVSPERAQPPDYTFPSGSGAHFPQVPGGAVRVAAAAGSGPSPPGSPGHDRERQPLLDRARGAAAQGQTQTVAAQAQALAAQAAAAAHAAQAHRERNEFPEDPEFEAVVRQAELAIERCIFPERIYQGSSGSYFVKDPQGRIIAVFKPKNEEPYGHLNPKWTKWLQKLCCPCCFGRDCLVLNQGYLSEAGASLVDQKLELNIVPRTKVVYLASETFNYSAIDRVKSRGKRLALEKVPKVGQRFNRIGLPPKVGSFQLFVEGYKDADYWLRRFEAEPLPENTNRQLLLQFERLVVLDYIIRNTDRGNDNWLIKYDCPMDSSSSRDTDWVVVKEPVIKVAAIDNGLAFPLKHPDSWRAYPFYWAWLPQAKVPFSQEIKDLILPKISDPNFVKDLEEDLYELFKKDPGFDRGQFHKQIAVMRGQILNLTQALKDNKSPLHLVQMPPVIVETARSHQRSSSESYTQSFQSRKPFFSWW
# UniProt Q99615: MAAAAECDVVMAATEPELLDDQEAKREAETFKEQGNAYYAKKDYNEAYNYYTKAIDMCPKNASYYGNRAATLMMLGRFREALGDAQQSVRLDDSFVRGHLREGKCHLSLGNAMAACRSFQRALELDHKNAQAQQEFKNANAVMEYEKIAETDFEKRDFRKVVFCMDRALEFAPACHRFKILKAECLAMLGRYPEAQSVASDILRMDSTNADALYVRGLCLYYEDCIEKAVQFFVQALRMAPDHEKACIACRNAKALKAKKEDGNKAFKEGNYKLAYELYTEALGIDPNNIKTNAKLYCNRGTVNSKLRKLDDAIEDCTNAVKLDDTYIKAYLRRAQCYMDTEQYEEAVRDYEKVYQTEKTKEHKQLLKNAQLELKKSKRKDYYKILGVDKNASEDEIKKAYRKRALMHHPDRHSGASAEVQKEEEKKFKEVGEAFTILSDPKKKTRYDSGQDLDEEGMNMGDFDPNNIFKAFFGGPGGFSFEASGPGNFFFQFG
# UniProt Q9BVA0, whole entry: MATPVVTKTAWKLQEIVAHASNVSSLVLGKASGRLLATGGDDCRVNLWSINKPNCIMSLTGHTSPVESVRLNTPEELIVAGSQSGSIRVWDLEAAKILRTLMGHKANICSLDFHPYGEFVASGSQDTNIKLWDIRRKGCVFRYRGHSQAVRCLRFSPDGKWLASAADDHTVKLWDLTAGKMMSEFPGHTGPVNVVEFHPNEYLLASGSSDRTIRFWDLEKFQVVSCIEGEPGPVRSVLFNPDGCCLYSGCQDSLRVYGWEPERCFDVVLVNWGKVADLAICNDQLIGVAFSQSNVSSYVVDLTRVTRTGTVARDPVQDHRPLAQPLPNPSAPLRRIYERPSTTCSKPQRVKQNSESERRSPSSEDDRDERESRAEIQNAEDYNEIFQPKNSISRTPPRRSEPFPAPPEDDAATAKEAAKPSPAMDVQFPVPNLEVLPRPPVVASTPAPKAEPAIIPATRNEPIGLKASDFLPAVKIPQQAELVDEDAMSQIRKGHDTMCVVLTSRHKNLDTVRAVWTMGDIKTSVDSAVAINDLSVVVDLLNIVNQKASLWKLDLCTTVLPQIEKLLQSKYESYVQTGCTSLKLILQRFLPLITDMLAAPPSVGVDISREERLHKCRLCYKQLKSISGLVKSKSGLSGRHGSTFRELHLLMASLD
# UniProt Q9BT23: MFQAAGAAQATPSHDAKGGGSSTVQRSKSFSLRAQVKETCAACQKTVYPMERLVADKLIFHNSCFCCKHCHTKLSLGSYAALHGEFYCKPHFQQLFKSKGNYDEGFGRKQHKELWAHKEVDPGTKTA
# UniProt Q9BYT8, whole entry, looked up: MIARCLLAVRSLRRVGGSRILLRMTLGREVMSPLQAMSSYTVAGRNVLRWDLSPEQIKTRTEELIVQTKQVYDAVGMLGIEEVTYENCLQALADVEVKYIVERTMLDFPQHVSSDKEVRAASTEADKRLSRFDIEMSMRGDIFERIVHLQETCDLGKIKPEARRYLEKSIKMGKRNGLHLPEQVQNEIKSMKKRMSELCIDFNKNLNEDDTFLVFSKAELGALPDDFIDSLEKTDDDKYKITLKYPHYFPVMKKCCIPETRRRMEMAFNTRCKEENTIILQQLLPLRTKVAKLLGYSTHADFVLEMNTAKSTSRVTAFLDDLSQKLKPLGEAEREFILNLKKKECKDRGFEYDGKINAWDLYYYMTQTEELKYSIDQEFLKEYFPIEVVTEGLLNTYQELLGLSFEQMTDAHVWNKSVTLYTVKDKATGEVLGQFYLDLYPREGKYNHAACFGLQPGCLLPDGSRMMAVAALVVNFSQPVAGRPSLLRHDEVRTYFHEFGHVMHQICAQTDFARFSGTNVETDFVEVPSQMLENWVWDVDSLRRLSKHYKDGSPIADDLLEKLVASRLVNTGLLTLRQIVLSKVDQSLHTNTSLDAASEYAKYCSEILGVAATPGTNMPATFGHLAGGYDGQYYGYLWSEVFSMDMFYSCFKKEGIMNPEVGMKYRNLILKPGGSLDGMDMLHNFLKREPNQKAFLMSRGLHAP
# UniProt Q9BTX1: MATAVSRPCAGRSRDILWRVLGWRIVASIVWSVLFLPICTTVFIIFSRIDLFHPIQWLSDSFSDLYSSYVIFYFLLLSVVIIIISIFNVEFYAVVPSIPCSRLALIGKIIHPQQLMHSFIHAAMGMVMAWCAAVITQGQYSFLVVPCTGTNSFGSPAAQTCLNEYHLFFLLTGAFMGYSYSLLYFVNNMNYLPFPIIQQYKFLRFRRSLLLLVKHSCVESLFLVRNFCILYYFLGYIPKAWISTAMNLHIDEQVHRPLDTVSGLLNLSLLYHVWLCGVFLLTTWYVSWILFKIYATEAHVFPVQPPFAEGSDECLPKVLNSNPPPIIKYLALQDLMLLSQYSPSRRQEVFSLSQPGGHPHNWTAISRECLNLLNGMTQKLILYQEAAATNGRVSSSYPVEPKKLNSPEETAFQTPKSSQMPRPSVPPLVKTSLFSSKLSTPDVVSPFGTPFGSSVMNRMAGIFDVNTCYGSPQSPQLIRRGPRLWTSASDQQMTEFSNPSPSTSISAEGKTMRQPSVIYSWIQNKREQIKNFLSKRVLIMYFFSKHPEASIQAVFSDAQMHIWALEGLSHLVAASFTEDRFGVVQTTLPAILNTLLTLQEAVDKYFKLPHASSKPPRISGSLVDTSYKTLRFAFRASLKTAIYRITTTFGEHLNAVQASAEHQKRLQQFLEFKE
# UniProt Q9BT73: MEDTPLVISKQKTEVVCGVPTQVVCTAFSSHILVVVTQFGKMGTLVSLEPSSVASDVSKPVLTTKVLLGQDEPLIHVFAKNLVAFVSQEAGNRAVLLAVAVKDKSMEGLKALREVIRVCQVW
# UniProt Q99797: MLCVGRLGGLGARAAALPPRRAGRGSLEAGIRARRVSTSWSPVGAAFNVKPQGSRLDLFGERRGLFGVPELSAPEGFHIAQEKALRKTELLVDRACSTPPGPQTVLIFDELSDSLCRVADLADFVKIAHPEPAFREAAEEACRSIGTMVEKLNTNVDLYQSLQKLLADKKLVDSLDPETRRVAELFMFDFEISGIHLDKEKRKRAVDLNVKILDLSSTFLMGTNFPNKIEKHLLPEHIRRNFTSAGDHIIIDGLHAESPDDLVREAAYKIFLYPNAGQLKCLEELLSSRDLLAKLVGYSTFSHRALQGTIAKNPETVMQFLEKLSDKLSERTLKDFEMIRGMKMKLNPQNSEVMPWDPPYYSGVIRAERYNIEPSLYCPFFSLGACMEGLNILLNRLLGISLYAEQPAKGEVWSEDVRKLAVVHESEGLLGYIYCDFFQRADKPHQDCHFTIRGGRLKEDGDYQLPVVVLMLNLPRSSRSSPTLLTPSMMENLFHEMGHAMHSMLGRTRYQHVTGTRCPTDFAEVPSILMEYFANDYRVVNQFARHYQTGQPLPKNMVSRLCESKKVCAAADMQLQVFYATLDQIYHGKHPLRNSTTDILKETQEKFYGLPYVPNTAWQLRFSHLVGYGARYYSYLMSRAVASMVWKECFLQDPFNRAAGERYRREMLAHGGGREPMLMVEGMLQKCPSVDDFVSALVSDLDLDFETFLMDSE
# UniProt Q96SU4: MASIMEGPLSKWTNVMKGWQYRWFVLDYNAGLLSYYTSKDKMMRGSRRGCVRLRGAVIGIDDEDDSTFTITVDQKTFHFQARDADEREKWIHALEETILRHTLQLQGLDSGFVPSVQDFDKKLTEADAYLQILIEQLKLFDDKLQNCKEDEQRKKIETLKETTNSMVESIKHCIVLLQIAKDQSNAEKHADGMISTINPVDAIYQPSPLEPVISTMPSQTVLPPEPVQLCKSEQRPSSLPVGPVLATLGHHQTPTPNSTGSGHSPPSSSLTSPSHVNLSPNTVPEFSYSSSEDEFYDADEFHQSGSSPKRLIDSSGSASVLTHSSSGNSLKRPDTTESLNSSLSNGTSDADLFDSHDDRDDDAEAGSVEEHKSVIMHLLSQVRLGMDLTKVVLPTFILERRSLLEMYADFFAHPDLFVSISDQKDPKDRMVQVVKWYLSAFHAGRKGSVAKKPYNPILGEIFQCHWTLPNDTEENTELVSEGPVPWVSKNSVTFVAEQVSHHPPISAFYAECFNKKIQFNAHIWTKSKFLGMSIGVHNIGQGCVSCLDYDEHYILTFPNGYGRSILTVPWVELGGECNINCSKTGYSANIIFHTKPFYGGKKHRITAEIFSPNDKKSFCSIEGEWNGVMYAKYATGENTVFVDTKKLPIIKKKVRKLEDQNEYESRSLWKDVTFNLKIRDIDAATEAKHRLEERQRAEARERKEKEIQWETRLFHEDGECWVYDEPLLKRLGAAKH
# UniProt Q9BYC5: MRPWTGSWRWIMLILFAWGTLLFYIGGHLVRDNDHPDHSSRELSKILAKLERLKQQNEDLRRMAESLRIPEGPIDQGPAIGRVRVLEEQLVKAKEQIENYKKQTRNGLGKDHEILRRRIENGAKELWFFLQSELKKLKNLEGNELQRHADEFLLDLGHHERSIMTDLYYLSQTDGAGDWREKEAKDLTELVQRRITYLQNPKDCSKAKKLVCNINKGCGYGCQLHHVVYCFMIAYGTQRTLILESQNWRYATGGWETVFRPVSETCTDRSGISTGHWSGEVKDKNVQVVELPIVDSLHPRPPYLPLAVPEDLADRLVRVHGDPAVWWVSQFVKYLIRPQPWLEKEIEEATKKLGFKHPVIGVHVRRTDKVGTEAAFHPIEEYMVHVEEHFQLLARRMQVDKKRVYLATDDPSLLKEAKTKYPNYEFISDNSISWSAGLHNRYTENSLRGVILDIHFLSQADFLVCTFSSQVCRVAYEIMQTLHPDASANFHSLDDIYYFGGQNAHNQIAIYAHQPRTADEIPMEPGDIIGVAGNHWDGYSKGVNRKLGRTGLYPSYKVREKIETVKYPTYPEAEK
# Compound: Nc1ncnc2c1ncn2[C@@H]1O[C@H](COP(=O)(O)OP(=O)(O)NP(=O)(O)O)[C@@H](O)[C@H]1O [adenylyl imidodiphosphate]
# Experiment: NP40-soluble protein abundance relative to vehicle (solubility fold change) (ratio); higher = more soluble protein in presence of AMP-PNP
# Conditions: concentration: 10mM
# Summary of the method: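 Values are fold changes against the detergent-processed vehicle, based on vsn-normalised intensities. Jurkat crude lysate was treated at eight concentrations from 0.1 to 10 mM (10 min at room temperature, then 3 min at 37 °C), solubilised with 0.8% NP40 and benzonase, ultracentrifuged and analysed by TMT-labelled LC-MS/MS over three independent experiments.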
row,Target,NP40-soluble protein abundance
1,MRPS26 (UniProt Q9BYN8),0.931 ± 0.064
2,YTHDF1 (UniProt Q9BYJ9),1.04 ± 0.063
3,UniProt Q9BW85,1.09 ± 0.056
4,SGPP1 (UniProt Q9BX95),1.04 ± 0.026
5,UniProt Q9BUK6 and related entries,0.996 ± 0.021
6,MAK16 (UniProt Q9BXY0),1.12 ± 0.015
7,TSG101 (UniProt Q99816),0.928 ± 0.048
8,UniProt Q9BPZ3 and related entries,0.9085 ± 0.0067
9,POP1 (UniProt Q99575),0.954 ± 0.081
10,KIFC1 (UniProt Q9BW19),1.11 ± 0.064
11,UniProt Q9BTY7,0.872 ± 0.048
12,PI4K2A (UniProt Q9BTU6),0.9734 ± 0.0076
13,DNAJC7 (UniProt Q99615),1.04 ± 0.024
14,KATNB1 (UniProt Q9BVA0),1 ± 0.02
15,LIMD2 (UniProt Q9BT23),1.15 ± 0.092
16,NLN (UniProt Q9BYT8),0.945 ± 0.025
17,UniProt Q9BTX1 and related entries,1.08 ± 0.085
18,UniProt Q96QZ7 and related entries,1.03 ± 0.028
19,C1orf50 (UniProt Q9BV19),0.974 ± 0.044
20,PSMG3 (UniProt Q9BT73),1.04 ± 0.023
21,MIPEP (UniProt Q99797),0.9411 ± 0.0032
22,UniProt Q96SU4 and related entries,0.975 ± 0.015
23,UniProt Q9BV73 and related entries,0.933 ± 0.018
24,MND1 (UniProt Q9BWT6),0.936 ± 0.063
25,FUT8 (UniProt Q9BYC5),0.983 ± 0.043

# As entered above.
# NP40-soluble protein abundance, UniProt Q9BPZ3 and related entries is entered as 0.9085 ± 0.0067
# NP40-soluble protein abundance, UniProt Q9BUK6 and related entries is entered as 0.996 ± 0.021
